Data from patent publication US11052151B2, “Diagnosis and treatment of autism spectrum disorder” (California Institute of Technology, priority 2012, dated 2021).
Counter-ions that a name gives are not always drawn. Residues, ends and D or L forms follow the SMILES beside them.

Assay: Metabolomics screening (GC/LC-MS) of sera, poly(I:C) (MIA) versus saline offspring
Type: in vivo, mice
Settings: 10-week old offspring of poly(I:C)-injected mothers versus controls, p < 0.10

Row | Molecule | Fold Change of serum metabolite
1 | 1-palmitoylplasmenylethanolamine | 0.73
2 | 13-HODE+9-HODE | 0.72
3 | CCCCCCCC/C=C\CCCCCCCC(=O)OCC(O)COP(=O)(O)OCCN (stereo not shown) [1-oleoylglycerophosphoethanolamine] | 0.7
4 | CCCCCC/C=C\CCCCCCCC(=O)OCC(O)COP(=O)([O-])OCC[N+](C)(C)C (stereo not shown) [1-palmitoleoylglycerophosphocholine] | 1.49
5 | CCCCCCCCCCCCCCCC(=O)OCC(O)COP(=O)(O)OCCN (stereo not shown) [1-palmitoylglycerophosphoethanolamine] | 0.81
6 | CCCCCCCCCCCCCCC(=O)OCC(O)COP(=O)([O-])OCC[N+](C)(C)C (stereo not shown) [1-pentadecanoylglycerophosphocholine] | 1.43
7 | CCCCCCCCCCCCCCCCCC(=O)OC[C@@H](O)COP(=O)(O)OC1[C@H](O)[C@H](O)C(O)[C@H](O)[C@H]1O (stereo partly shown) [1-stearoylglycerophosphoinositol] | 0.64
8 | CCC(C)C(=O)C(=O)O (stereo not shown) [3-methyl-2-oxovalerate] | 0.75
9 | O=C(O)[C@H](O)COP(=O)(O)O [3-phosphoglycerate] | 0.51
10 | CCc1ccc(OS(=O)(=O)[O-])cc1.[K+] [4-ethylphenylsulfate] | 46.39
11 | CC(C)CC(=O)C(=O)O [4-methyl-2-oxopentaoate, 4-methyl-2-oxopentanoate] | 0.7
12 | CC12N=CN([C@@H]3O[C@H](CO)[C@@H](O)[C@H]3S)C1=NC=NC2=N (stereo partly shown) [5-methylthioadenosine] | 1.34
13 | CCCCC/C=C\C[C@H](O)/C=C/C=C\C/C=C\CCCC(=O)O [12-HETE] | 0.69
14 | CC(=O)N[C@@H](CO)C(=O)O [N-acetylserine] | 0.73
15 | CCCCC/C=C\C/C=C\C/C=C\C/C=C\CCCCCC(=O)O [adrenate] | 0.82
16 | N=C(N)NCCC[C@H](N)C(=O)O [arginine] | 0.87
17 | NCCC(=O)O [beta-alanine] | 0.46
18 | C=CC1=C(C)/C(=C/c2[nH]c(Cc3[nH]c(/C=C4\NC(=O)C(C)=C4C=C)c(C)c3CCC(=O)O)c(CCC(=O)O)c2C)NC1=O [bilirubin (E,E)] | 2.68
19 | N[C@@H](CS)C(=O)O [cysteine] | 0.73
20 | CCCCC/C=C\C/C=C\CCCCCCCCCC(=O)O [dihomo-linoleate (20:2n6)] | 0.79
21 | CC/C=C\C/C=C\C/C=C\C/C=C\C/C=C\C/C=C\CCC(=O)O [docosahexaenoate (DHA; 22:6n3)] | 0.8

Row | Molecule | Fold Change of serum metabolite
22 | CC/C=C\C/C=C\C/C=C\C/C=C\C/C=C\CCCCCC(=O)O [docosapentaenoate (n3 DPA; 22:5n3)] | 0.75
23 | CCCCC/C=C\C/C=C\C/C=C\C/C=C\C/C=C\CCC(=O)O [docosapentaenoate (n6 DPA; 22:5n6)] | 0.83
24 | C[N+](C)(C)[C@@H](Cc1c[nH]c(=S)[nH]1)C(=O)[O-] [ergothioneine] | 0.72
25 | NC(=O)CC[C@H](N)C(=O)O [glutamine] | 1.2
26 | O=C(O)CO [glycolate (hydroxyacetate)] | 1.17
27 | CC(C)[C@H](NC(=O)CN)C(=O)O [glycylvaline] (H-Gly-Val-OH) | 0.48
28 | O=C(O)CCc1cnc[nH]1 [imidazole propionate] | 1.35
29 | O=C(O)C(=O)Cc1c[nH]c2ccccc12 [indolepyruvate] | 1.57
30 | O[C@H]1[C@H](O)[C@@H](O)[C@H](O)[C@@H](O)[C@H]1O [myo-inositol] | 0.86
31 | O=C(O)CCCCCCCCCCCCCCCCC(=O)O [octadecanedioate] | 0.83
32 | O=S(=O)(O)Oc1ccccc1 [phenol sulfate] | 0.68
33 | O=C(O)CNC(=O)Cc1ccccc1 [phenylacetylglycine] | 0.71
34 | C=C(OP(=O)(O)O)C(=O)O [phosphoenolpyruvate] | 0.56
35 | O=C[C@H](O)[C@H](O)[C@H](O)CO [ribose] | 1.44
36 | NCCc1c[nH]c2ccc(O)cc12 [serotonin] | 1.15
37 | O=C(O)/C=C/c1cnc[nH]1 [transurocanate] | 1.71
38 | O=C[C@H](O)[C@@H](O)[C@H](O)CO [xylose] | 1.34
39 | TDTEDKGEFLSEGGGVR (ASD-related metabolite) | 1.8
40 | eicosenoate | 0.61
41 | equol sulfate | 0.78

Assay: Metabolomics screening (GC/LC-MS) of sera after B. fragilis treatment of MIA offspring
Type: in vivo, mice
Settings: poly(I:C)+B. fragilis offspring relative to saline controls, p<0.05

Row | Molecule | I:C-Bfrag / CON (fold change of serum metabolite)
42 | 3-phenylpropionate (hydrocinnamate) | 0.60
43 | O=C(O)CCCCCCCO [8-hydroxyoctanoate] | 0.72
44 | O=C(O)CCCCCCCCCCCCCCCO [16-hydroxypalmitate] | 0.70
45 | N=C(N)NCCC[C@H](N)C(=O)O [arginine] | 0.86
46 | O=C(O)c1ccccc1O [salicylate] | 0.68
47 | NCCc1c[nH]c2ccc(O)cc12 [serotonin] | 1.26
48 | azelate (nonanedioate) | 0.72
49 | glutarate (pentanedioate) | 0.78
50 | pimelate (heptanedioate) | 0.61
51 | sarcosine (N-Methylglycine) | 0.64
52 | sebacate (decanedioate) | 0.64
